# This is one part of the list.
# Tests used:
# Experiment in all cases: glycan array binding signal (z-score within array); higher = stronger binding
# Conditions in all cases: glycan notation: IUPAC condensed, linker removed
# [1] = biological target: Neu5Ac(a2-3)Gal(b1-4)GlcNAc(b1-6)[Gal(b1-3)]GalNAc
# Method in brief: (§1)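 The Consortium for Functional Glycomics database supplied 3228 glycan arrays, of which those lacking an available protein sequence were dropped. The binding signal, a within-array Z-score, was averaged across arrays of the same protein sequence and across linkers. Negative scores can be read as non-binding.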
# [2] = biological target: Neu5Ac(a2-3)Gal(b1-4)GlcNAc(b1-6)[Neu5Ac(a2-3)Gal(b1-3)]GalNAc
# Method in brief: as §1
# [3] = biological target: Neu5Ac(a2-3)Gal(b1-4)GlcNAc6S
# Method in brief: as §1
# [4] = biological target: Neu5Ac(a2-3)Gal(b1-4)[Fuc(a1-3)]GlcNAc
# Method in brief: as §1
# [5] = biological target: Neu5Ac(a2-3)Gal(b1-4)[Fuc(a1-3)]GlcNAc(b1-2)Man
# Method in brief: as §1
# [6] = biological target: Neu5Ac(a2-3)Gal(b1-4)[Fuc(a1-3)]GlcNAc(b1-3)Gal
# Method in brief: as §1
# [7] = biological target: Neu5Ac(a2-3)Gal(b1-4)[Fuc(a1-3)]GlcNAc(b1-3)Gal(b1-4)GlcNAc
# Method in brief: as §1
# [8] = biological target: Neu5Ac(a2-3)Gal(b1-4)[Fuc(a1-3)]GlcNAc(b1-3)Gal(b1-4)[Fuc(a1-3)]GlcNAc(b1-3)Gal(b1-4)[Fuc(a1-3)]GlcNAc
# Method in brief: as §1
# [9] = biological target: Neu5Ac(a2-3)Gal(b1-4)[Fuc(a1-3)]GlcNAc(b1-3)GalNAc
# Method in brief: as §1
# [10] = biological target: Neu5Ac(a2-3)Gal(b1-4)[Fuc(a1-3)]GlcNAc(b1-6)[Gal(b1-3)]GalNAc
# Method in brief: as §1
# [11] = biological target: Neu5Ac(a2-3)Gal(b1-4)[Fuc(a1-3)]GlcNAc(b1-6)[Neu5Ac(a2-3)Gal(b1-3)]GalNAc
# Method in brief: as §1
# [12] = biological target: Neu5Ac(a2-3)Gal(b1-4)[Fuc(a1-3)]GlcNAc6S
# Method in brief: as §1
# [13] = biological target: Neu5Ac(a2-3)Gal6S(b1-4)GlcNAc
# Method in brief: as §1
# [14] = biological target: Neu5Ac(a2-3)Gal6S(b1-4)[Fuc(a1-3)]GlcNAc
# Method in brief: as §1
# Neu5Ac(a2-3)GalNAc = biological target: Neu5Ac(a2-3)GalNAc
# Method in brief: as §1
# [15] = biological target: Neu5Ac(a2-3)GalNAc(b1-4)GlcNAc
# Method in brief: as §1
# [16] = biological target: Neu5Ac(a2-3)[GalNAc(b1-4)]Gal(b1-4)Glc
# Method in brief: as §1
# [17] = biological target: Neu5Ac(a2-3)[GalNAc(b1-4)]Gal(b1-4)GlcNAc
# Method in brief: as §1
# [18] = biological target: Neu5Ac(a2-3)[GalNAc(b1-4)]Gal(b1-4)GlcNAc(b1-3)GalNAc
# Method in brief: as §1
# [19] = biological target: Neu5Ac(a2-3)[Neu5Ac(a2-6)]GalNAc
# Method in brief: as §1
# Neu5Ac(a2-6)Gal = biological target: Neu5Ac(a2-6)Gal
# Method in brief: as §1
# [20] = biological target: Neu5Ac(a2-6)Gal(b1-3)GlcNAc(b1-3)[Gal(b1-4)GlcNAc(b1-6)]Gal(b1-4)Glc
# Method in brief: as §1
# Neu5Ac(a2-6)Gal(b1-4)Glc = biological target: Neu5Ac(a2-6)Gal(b1-4)Glc
# Method in brief: as §1
# [21] = biological target: Neu5Ac(a2-6)Gal(b1-4)GlcNAc
# Method in brief: as §1
# [22] = biological target: Neu5Ac(a2-6)Gal(b1-4)GlcNAc(b1-2)Man
# Method in brief: as §1
# [23] = biological target: Neu5Ac(a2-6)Gal(b1-4)GlcNAc(b1-2)Man(a1-3)Man(b1-4)GlcNAc(b1-4)GlcNAc
# Method in brief: as §1
# [24] = biological target: Neu5Ac(a2-6)Gal(b1-4)GlcNAc(b1-2)Man(a1-3)[Gal(b1-4)GlcNAc(b1-2)Man(a1-6)]Man(b1-4)GlcNAc(b1-4)GlcNAc
# Method in brief: as §1
# [25] = biological target: Neu5Ac(a2-6)Gal(b1-4)GlcNAc(b1-2)Man(a1-3)[GlcNAc(b1-2)Man(a1-6)]Man(b1-4)GlcNAc(b1-4)GlcNAc
# Method in brief: as §1
# [26] = biological target: Neu5Ac(a2-6)Gal(b1-4)GlcNAc(b1-2)Man(a1-3)[GlcNAc(b1-4)][Neu5Ac(a2-6)Gal(b1-4)GlcNAc(b1-2)Man(a1-6)]Man(b1-4)GlcNAc(b1-4)GlcNAc
# Method in brief: as §1
# [27] = biological target: Neu5Ac(a2-6)Gal(b1-4)GlcNAc(b1-2)Man(a1-3)[Man(a1-6)]Man(b1-4)GlcNAc(b1-4)GlcNAc
# Method in brief: as §1
binder,measurement,setting,value
Blon2355mut (Bifidobacterium longum) (protein) MVQEPTLEWHVIPEPTNVEPLVGTCSLPLSGTVVEQRGADDAEAVFARQLVDDIKRVCGGRWQVASGEVQREVTLRTSPSLDDWSYVLEVSPDGVVITGSGFEGVRDGVQTLRQIIRQIGLTIPCMVIRDRPAFSTRGYYLDVTRGRVPSMAWLKSWVDRLCFYKYNQFQLYIEHTFQFNGLSEVWRGADPLTSSDILELDSYCAARGIELVPSVSTFGHHYTALRTRQLRDLGEFPEDADRPFSLIERMTHHTLNITDERSYEFSTSLIDELMPLFRSRKFNICANETFDLGKGRSKQESAKRGVGAMYADFVERLCRHVDDRGHDVMVWADVALEHPEIIDTLPKNITWLNWQYEPNVDDGTTAALADAGATQMVCPAVWCWNALIPRIDDAWNNITRMARHGRAHDVSGMLVTDWGDFGHVNDPRMSVPGMIFGAQQSWNPDAELSEVDMLSRISTIEYGDHTGSVVGALRGASAKGGFSWSDLVTYLELDDGRGGCNTEIVRVMGCLEAYRNDLPQSGQARLADARVSMLRTLRDSILAGRELNGKLDDAAKDITQLLRVAGDPSSAAVWSLAIDGQRLLNRVGLALLAAHGVVRQDEAGIDAAKLADELECWTEQYSRLWHEVSRQSELARIQHVVWRAADVLRSI,glycan array binding signal (z-score),[1],-0.276
same,glycan array binding signal (z-score),[2],-0.218
same,glycan array binding signal (z-score),[3],-0.793
same,glycan array binding signal (z-score),[4],-0.661
same,glycan array binding signal (z-score),[5],1.4
same,glycan array binding signal (z-score),[6],-0.628
same,glycan array binding signal (z-score),[7],1.5
same,glycan array binding signal (z-score),[8],-0.579
same,glycan array binding signal (z-score),[9],0.838
same,glycan array binding signal (z-score),[10],-0.085
same,glycan array binding signal (z-score),[11],1.6
same,glycan array binding signal (z-score),[12],0.298
same,glycan array binding signal (z-score),[13],0.155
same,glycan array binding signal (z-score),[14],-1
same,glycan array binding signal (z-score),Neu5Ac(a2-3)GalNAc,-1.02
same,glycan array binding signal (z-score),[15],-0.019
same,glycan array binding signal (z-score),[16],-0.231
same,glycan array binding signal (z-score),[17],-0.608
same,glycan array binding signal (z-score),[18],0.04
same,glycan array binding signal (z-score),[19],0.11
same,glycan array binding signal (z-score),Neu5Ac(a2-6)Gal,-0.235
same,glycan array binding signal (z-score),[20],0.036
same,glycan array binding signal (z-score),Neu5Ac(a2-6)Gal(b1-4)Glc,-0.489
same,glycan array binding signal (z-score),[21],-0.564
same,glycan array binding signal (z-score),[22],-0.331
same,glycan array binding signal (z-score),[23],-0.123
same,glycan array binding signal (z-score),[24],-0.73
same,glycan array binding signal (z-score),[25],-1.3
same,glycan array binding signal (z-score),[26],-0.322
same,glycan array binding signal (z-score),[27],-0.242

# Two consecutive records from above:
binder,measurement,setting,value
Blon2355mut (Bifidobacterium longum) (protein) MVQEPTLEWHVIPEPTNVEPLVGTCSLPLSGTVVEQRGADDAEAVFARQLVDDIKRVCGGRWQVASGEVQREVTLRTSPSLDDWSYVLEVSPDGVVITGSGFEGVRDGVQTLRQIIRQIGLTIPCMVIRDRPAFSTRGYYLDVTRGRVPSMAWLKSWVDRLCFYKYNQFQLYIEHTFQFNGLSEVWRGADPLTSSDILELDSYCAARGIELVPSVSTFGHHYTALRTRQLRDLGEFPEDADRPFSLIERMTHHTLNITDERSYEFSTSLIDELMPLFRSRKFNICANETFDLGKGRSKQESAKRGVGAMYADFVERLCRHVDDRGHDVMVWADVALEHPEIIDTLPKNITWLNWQYEPNVDDGTTAALADAGATQMVCPAVWCWNALIPRIDDAWNNITRMARHGRAHDVSGMLVTDWGDFGHVNDPRMSVPGMIFGAQQSWNPDAELSEVDMLSRISTIEYGDHTGSVVGALRGASAKGGFSWSDLVTYLELDDGRGGCNTEIVRVMGCLEAYRNDLPQSGQARLADARVSMLRTLRDSILAGRELNGKLDDAAKDITQLLRVAGDPSSAAVWSLAIDGQRLLNRVGLALLAAHGVVRQDEAGIDAAKLADELECWTEQYSRLWHEVSRQSELARIQHVVWRAADVLRSI,glycan array binding signal (z-score),[7],1.5
same,glycan array binding signal (z-score),[8],-0.579

# Source: the supplement of paper PMC8728848
